From paper PMC6858345, “Structural insights into heme binding to IL-36α proinflammatory cytokine” (Scientific Reports, 2019)

B1: IL-36α: full-length interleukin-36α, recombinantly expressed in E. coli (protein, UniProt Q9UHA7 1-158, looked up)
chain: MEKALKIDTPQQGSIQDINHRVWVLQDQTLIAVPRKDRMSPVTIALISCRHVETLEKDRGNPIYLGLNGLNLCLMCAKVGDQPTLQLKEKDIMDLYNQPEPVKSFLFYHSQSGRNSTFESVAFPGWFIAVSSEGGCPLILTQELGKANTTDFGLTMLF
modifications: full-length
notes: full-length interleukin-36α, recombinantly expressed in E. coli
B2: H109A: IL-36α protein mutant H109A (protein, UniProt Q9UHA7 6-158, looked up, variant H109A)
Interleukin-36 alpha: KIDTPQQGSIQDINHRVWVLQDQTLIAVPRKDRMSPVTIALISCRHVETLEKDRGNPIYLGLNGLNLCLMCAKVGDQPTLQLKEKDIMDLYNQPEPVKSFLFYASQSGRNSTFESVAFPGWFIAVSSEGGCPLILTQELGKANTTDFGLTMLF
B3: H109AC136SP137A: IL-36α protein mutant H109A C136S P137A (protein, UniProt Q9UHA7 6-158, looked up, variant H109A C136S P137A)
Interleukin-36 alpha: KIDTPQQGSIQDINHRVWVLQDQTLIAVPRKDRMSPVTIALISCRHVETLEKDRGNPIYLGLNGLNLCLMCAKVGDQPTLQLKEKDIMDLYNQPEPVKSFLFYASQSGRNSTFESVAFPGWFIAVSSEGGSALILTQELGKANTTDFGLTMLF
B4: Y108SH109AC136SP137A: IL-36α protein mutant Y108S H109A C136S P137A (protein, UniProt Q9UHA7 6-158, looked up, variant Y108S H109A C136S P137A)
Interleukin-36 alpha: KIDTPQQGSIQDINHRVWVLQDQTLIAVPRKDRMSPVTIALISCRHVETLEKDRGNPIYLGLNGLNLCLMCAKVGDQPTLQLKEKDIMDLYNQPEPVKSFLFSASQSGRNSTFESVAFPGWFIAVSSEGGSALILTQELGKANTTDFGLTMLF
B5: Y108S: IL-36α protein mutant Y108S (protein, UniProt Q9UHA7 6-158, looked up, variant Y108S)
Interleukin-36 alpha: KIDTPQQGSIQDINHRVWVLQDQTLIAVPRKDRMSPVTIALISCRHVETLEKDRGNPIYLGLNGLNLCLMCAKVGDQPTLQLKEKDIMDLYNQPEPVKSFLFSHSQSGRNSTFESVAFPGWFIAVSSEGGCPLILTQELGKANTTDFGLTMLF
B6: Y108SH109A: IL-36α protein mutant Y108S H109A (protein, UniProt Q9UHA7 6-158, looked up, variant Y108S H109A)
Interleukin-36 alpha: KIDTPQQGSIQDINHRVWVLQDQTLIAVPRKDRMSPVTIALISCRHVETLEKDRGNPIYLGLNGLNLCLMCAKVGDQPTLQLKEKDIMDLYNQPEPVKSFLFSASQSGRNSTFESVAFPGWFIAVSSEGGCPLILTQELGKANTTDFGLTMLF
B7: C136SP137A: IL-36α protein mutant C136S P137A (protein, UniProt Q9UHA7 6-158, looked up, variant C136S P137A)
Interleukin-36 alpha: KIDTPQQGSIQDINHRVWVLQDQTLIAVPRKDRMSPVTIALISCRHVETLEKDRGNPIYLGLNGLNLCLMCAKVGDQPTLQLKEKDIMDLYNQPEPVKSFLFYHSQSGRNSTFESVAFPGWFIAVSSEGGSALILTQELGKANTTDFGLTMLF
B8: Y108SC136SP137A: IL-36α protein mutant Y108S C136S P137A (protein, UniProt Q9UHA7 6-158, looked up, variant Y108S C136S P137A)
Interleukin-36 alpha: KIDTPQQGSIQDINHRVWVLQDQTLIAVPRKDRMSPVTIALISCRHVETLEKDRGNPIYLGLNGLNLCLMCAKVGDQPTLQLKEKDIMDLYNQPEPVKSFLFSHSQSGRNSTFESVAFPGWFIAVSSEGGSALILTQELGKANTTDFGLTMLF

Assay: Resonance Raman spectroscopy of heme complexes (coordination state)
Design: key to Raman coordination state: 5c, pentacoordinated; 6c, hexacoordinated
Settings: excitation 413 nm; for Raman coordination state: equimolar heme and protein or peptide

Molecule | Heme-iron coordination state by rRaman (in words) | Raman coordination state
B1 | pentacoordinated | 5c
B2 | pentacoordination | 5c
B3 |  | 5c
B4 |  | 5c
B5 |  | 5c
B6 |  | 5c
B7 |  | 5c
B8 |  | 5c
